Article PMC8712183
No constants are given. Whether binding was seen depends on the method and setting. In cells and extracts the contact can be indirect. Some entries that bind do so weakly or less than the wild type.

Protein sequences, listed by entry. Tags and fused reporters are not part of them.
UniProt P12956: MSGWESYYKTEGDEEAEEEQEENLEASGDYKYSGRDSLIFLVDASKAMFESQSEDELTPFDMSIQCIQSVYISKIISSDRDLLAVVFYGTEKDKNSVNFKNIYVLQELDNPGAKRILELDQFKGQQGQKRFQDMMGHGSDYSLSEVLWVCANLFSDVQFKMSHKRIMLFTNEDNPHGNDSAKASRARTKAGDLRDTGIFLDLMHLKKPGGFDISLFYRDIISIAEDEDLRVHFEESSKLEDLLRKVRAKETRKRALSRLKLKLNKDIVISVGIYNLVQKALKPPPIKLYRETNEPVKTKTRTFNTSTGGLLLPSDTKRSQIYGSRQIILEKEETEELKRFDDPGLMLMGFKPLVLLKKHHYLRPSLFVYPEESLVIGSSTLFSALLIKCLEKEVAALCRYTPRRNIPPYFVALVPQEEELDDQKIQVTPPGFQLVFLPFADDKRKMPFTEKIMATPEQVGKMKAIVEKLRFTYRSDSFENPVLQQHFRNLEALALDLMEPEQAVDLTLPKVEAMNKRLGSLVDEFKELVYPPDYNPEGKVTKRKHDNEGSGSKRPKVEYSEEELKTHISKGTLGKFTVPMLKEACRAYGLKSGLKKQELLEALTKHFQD

B1: testicular expression 10 (TEX10) (protein, UniProt Q9NXF1 1-929)
chain: MTKKRKRQHDFQKVKLKVGKKKPKLQNATPTNFKTKTIHLPEQLKEDGTLPTNNRKLNIKDLLSQMHHYNAGVKQSALLGLKDLLSQYPFIIDAHLSNILSEVTAVFTDKDANVRLAAVQLLQFLAPKIRAEQISPFFPLVSAHLSSAMTHITEGIQEDSLKVLDILLEQYPALITGRSSILLKNFVELISHQQLSKGLINRDRSQSWILSVNPNRRLTSQQWRLKVLVRLSKFLQALADGSSRLRESEGLQEQKENPHATSNSIFINWKEHANDQQHIQVYENGGSQPNVSSQFRLRYLVGGLSGVDEGLSSTENLKGFIEIIIPLLIECWVEAVPPQLATPVGNGIEREPLQVMQQVLNIISLLWKLSKQQDETHKLESWLRKNYLIDFKHHFMSRFPYVLKEITKHKRKEPNKSIKHCTVLSNNIDHLLLNLTLSDIMVSLANASTLQKDCSWIEMIRKFVTETLEDGSRLNSKQLNRLLGVSWRLMQIQPNREDTETLIKAVYTLYQQRGLILPVRTLLLKFFSKIYQTEELRSCRFRYRSKVLSRWLAGLPLQLAHLGSRNPELSTQLIDIIHTAAARANKELLKSLQATALRIYDPQEGAVVVLPADSQQRLVQLVYFLPSLPADLLSRLSRCCIMGRLSSSLAAMLIGILHMRSSFSGWKYSAKDWLMSDVDYFSFLFSTLTGFSKEELTWLQSLRGVPHVIQTQLSPVLLYLTDLDQFLHHWDVTEAVFHSLLVIPARSQNFDILQSAISKHLVGLTVIPDSTAGCVFGVICKLLDHTCVVSETLLPFLASCCYSLLYFLLTIEKGEAEHLRKRDKLWGVCVSILALLPRVLRLMLQSLRVNRVGPEELPVVGQLLRLLLQHAPLRTHMLTNAILVQQIIKNITTLKSGSVQEQWLTDLHYCFNVYITGHPQGPSALATVY

Assays:
[1] = molecular target: T1, testicular expression 10 (TEX10) (human (endogenous in T24)) (UniProt Q9NXF1); experiment: co-IP; endogenous proteins; T24 cell extract in modified RIPA lysis buffer (50 mM Tris-HCl pH 7.4, 150 mM NaCl, 1% Nonidet P-40, 0.25% sodium deoxycholate, 1 mM EDTA); primary antibody (anti-TEX10 or anti-XRCC6) or control IgG overnight at 4°C, protein A/G magnetic beads 3 h, three washes, immunoblot
T1 sequence: B1 chain

[2] = molecular target: XRCC6/Ku70 (human (endogenous in T24)) (UniProt P12956); experiment: as above

| Molecule | binding [1] | binding [2] |
| --- | --- | --- |
| XRCC6/Ku70 (from UniProt P12956 1-609) | binds | – |
| B1 | – | binds |
